Data as given in US8551997B2, “Structural-based inhibitors of the glutathione binding site in aldose reductase, methods of screening therefor and methods of use” (The Board of Regents of the University of Texas System, priority 2004, dated 2013).
Some results were stated once for a whole list of compounds, not compound by compound.

Legend:
HT29 cells [1] = assay: PGE2 assay in HT29 cells; format: cell-based; details: 20 μM
Procedure: Caco-2 cells were plated in 6 well plates at a density of 2×10^5 cells/well. After 24 hours, the medium was replaced with fresh medium containing 0.1% serum with or without, sorbinil (20 μM) followed by treatment with either 10 ng/ml BFGF or PDGF, for another 24 h. HT29 cells were plated in 6 well plate at a density of 2×10^5 cells/well. After 24 hours, medium was replaced with serum-free medium with or without, sorbinil or zopolrestat (20 μM) followed by treatment with either EGF (5 ng/ml) or BFGF (10 ng/ml) for another 24 h. The medium from each cell lines was collected from each well and analyzed for PGE2 by using an Enzyme Immuno Assay kit according to the manufacturer's instructions (Cayman Chemical Co., Inc.).
Briefly, 50 μl of diluted standard/sample were pipetted into a pre-coated goat polyclonal anti-mouse IgG 96-well plate. Aliquots (50 μl) of a PGE2 monoclonal antibody and PGE2 acetylcholine esterase (AchE) conjugate, (PGE2 tracer) were added to each well and allowed to incubate at 4° C. for 24 h. After incubation, the wells were washed five times with wash buffer containing 0.05% Tween-20, followed by the addition of 200 μl of Ellman's reagent containing acetylthiocholine and 5,5′-dithio-bis-(2-nitrobenzoic acid). Samples were read after 60 min at 412 nm with an ELISA reader. […]

HT29 cells [2] = assay: HT29 cell proliferation, MTT assay; format: cell-based; details: 20 μM, 24 h
Procedure: HT29 cells were grown to confluence in McCoy's medium and harvested and plated 2,500 per well in a 96-well plate. Subconfluent cells were growth arrested in 0.1% FBS with or without AR inhibitor sorbinil or zopolrestat (20 μM). After 24 hours, EGF (5 ng/ml) or BFGF (10 ng/ml) was added to the medium and the cells were incubated for another 24 hours. Cells incubated with the AR inhibitors alone served as control. Cell viability was determined by an MTT assay.

A549 cells [3] = assay: A549 cell proliferation, MTT assay; format: cell-based, human; details: 100 μM, 24 hrs
Procedure: A549 cells were grown to confluence in Ham's F12K medium containing 10% FBS and harvested, and plated at 5000 cells per well in a 96-well plate. After 24 hrs A549 cells were treated with or without AR inhibitor sorbinil or tolrestat with various concentrations for another 24 hrs. Cells incubated without AR inhibitors served as control. Cell viability was determined by and MTT assay.

Caco-2 cells = assay: Growth factor-induced Caco-2 cell growth, MTT assay; format: cell-based, human; details: 24 h
HT29 cells [4] = assay: Cell invasion assay, HT29; format: cell-based; details: 75 μM, EGF 5 ng/ml, 24 hrs
A549 cells [5] = assay: Cell invasion assay, A549; format: cell-based, human; details: 100 μM, 5% FBS, 24 hrs

(S)-6-fluorospiro[chroman-4,4′-imidazolidine]-2,5′-dione [sorbinil]
prevention of EGF and BFGF-induced PGE2 production (HT29 cells [1]): > 90% | attenuation of EGF and BFGF-stimulated HT29 cell growth (HT29 cells [2]): > 60% | inhibition of A549 cells proliferation (A549 cells [3]): more than 75% | attenuation of BFGF and PDGF-stimulated Caco-2 growth (Caco-2 cells): > 80% | prevention of invasion of HT29 cells through matrigel (HT29 cells [4]): more than 70% | prevention of invasion of A549 cells through matrigel (A549 cells [5]): more than 60%
